Intracellular localization data for two substances are collected here from patent US9676829B2, “Antibacterial polypeptides and use thereof” (Oslo Universitetssykehus HF, priority 2009, dated 2017).

The data set deals with E. coli. As to the kind of experiment: Subcellular fractionation and western blot of FLAG-tagged DinQ. The data set is classed as cell-based, Escherichia coli. As to conditions: 3×FLAG-tagged peptides, after IPTG induction. Background: A western blot detects proteins with antibodies after separation by electrophoresis.

In the case of “MIDKAIIVLGALIALLELIRFLLQLLN (listed as Escherichia coli) [ORF5, DinQ ORF-V peptide with N-terminal Met, form translated from GUG start codon, 27 aa]”, the intracellular localization entry is reported as “localized to the inner membrane”.
For “DinQ ORF2: amino acid sequence of the dinQ II polypeptide (ORF-II), 49 aa (MRRDRQWMSKRMHSHSIAWRKRVIDKAIIVLGALIALLELIRFLLQLLN; listed as Escherichia coli)” the value was “localized to the inner membrane”.
